Earlier results, collected in patent US20240245705A1, “ORALLY ADMINISTERED COMBINATIONS OF AMOXICILLIN AND AVIBACTAM DERIVATIVES FOR TREATING MYCOBACTERIAL INFECTIONS” (Arixa Pharmaceuticals, Inc., priority 2019, published 2024).
Where a name gives a salt, the structure may show the parent alone. Read-outs that look alike come from different tables or passages of the source. Some results were stated once for a whole list of compounds, not compound by compound. For some of these results: At least one structure is not confirmed: it was looked up by name or label, or the drawing left a doubt.

Tests used:
[1] = as disclosed in U.S. Pat. No. 10,085,999; species not given; cited from earlier work
[2] = male Beagle dogs; cited from earlier work
[3] = Cynomolgus monkeys; cited from earlier work
[4] = Sprague-Dawley rats; cited from earlier work

Structure (SMILES)	oral bioavailability (% F) [1]	avibactam oral bioavailability (% F) [4]	further results
COC(=O)C(C)(C)COS(=O)(=O)ON1C(=O)N2C[C@H]1CC[C@H]2C(N)=O [avibactam derivative (10), methyl 3-(((((1R,2S,5R)-2-carbamoyl-7-oxo-1,6-diazabicyclo[3.2.1]octan-6-yl)oxy)sulfonyl)oxy)-2,2-dimethylpropanoate]	greater than 10%	–	–
CC(C)(COS(=O)(=O)ON1C(=O)N2C[C@H]1CC[C@H]2C(N)=O)C(=O)OCc1ccccc1 [avibactam derivative (4), benzyl 3-(((((1R,2S,5R)-2-carbamoyl-7-oxo-1,6-diazabicyclo[3.2.1]octan-6-yl)oxy)sulfonyl)oxy)-2,2-dimethylpropanoate]	greater than 10%	–	–
CCOC(=O)C(C)(C)COS(=O)(=O)ON1C(=O)N2C[C@H]1CC[C@H]2C(N)=O [avibactam derivative (3), ethyl 3-(((((1R,2S,5R)-2-carbamoyl-7-oxo-1,6-diazabicyclo[3.2.1]octan-6-yl)oxy)sulfonyl)oxy)-2,2-dimethylpropanoate]	greater than 10%	–	avibactam oral bioavailability [2]: greater than 50 % F; avibactam oral bioavailability [3]: greater than 50 % F
CCCCOC(=O)C(C)(C)COS(=O)(=O)ON1C(=O)N2C[C@H]1CC[C@H]2C(N)=O [avibactam derivative (58), butyl 3-(((((1R,2S,5R)-2-carbamoyl-7-oxo-1,6-diazabicyclo[3.2.1]octan-6-yl)oxy)sulfonyl)oxy)-2,2-dimethylpropanoate]	–	greater than 10%	–
C[C@]1(COS(=O)(=O)ON2C(=O)N3C[C@H]2CC[C@H]3C(N)=O)CCOC1=O [avibactam derivative (42), (1R,2S,5R)-2-carbamoyl-7-oxo-1,6-diazabicyclo[3.2.1]octan-6-yl ((3-methyl-2-oxotetrahydrofuran-3-yl)methyl) sulfate]	–	greater than 10%	–
CCCCCCOC(=O)CCC(C)(C)COS(=O)(=O)ON1C(=O)N2C[C@H]1CC[C@H]2C(N)=O [avibactam derivative (36), hexyl 5-(((((1R,2S,5R)-2-carbamoyl-7-oxo-1,6-diazabicyclo[3.2.1]octan-6-yl)oxy)sulfonyl)oxy)-4,4-dimethylpentanoate]	–	greater than 10%	–
CC(C)(COS(=O)(=O)ON1C(=O)N2C[C@H]1CC[C@H]2C(N)=O)C(=O)OC1COC1 [avibactam derivative (16), oxetan-3-yl 3-(((((1R,2S,5R)-2-carbamoyl-7-oxo-1,6-diazabicyclo[3.2.1]octan-6-yl)oxy)sulfonyl)oxy)-2,2-dimethylpropanoate]	greater than 10%	–	–
CCCOC(=O)C(C)(C)COS(=O)(=O)ON1C(=O)N2C[C@H]1CC[C@H]2C(N)=O [avibactam derivative (57), propyl 3-(((((1R,2S,5R)-2-carbamoyl-7-oxo-1,6-diazabicyclo[3.2.1]octan-6-yl)oxy)sulfonyl)oxy)-2,2-dimethylpropanoate]	–	greater than 10%	–
CC(=O)SCC(C)(C)COS(=O)(=O)ON1C(=O)N2C[C@H]1CC[C@H]2C(N)=O [avibactam derivative (53), S-(3-(((((1R,2S,5R)-2-carbamoyl-7-oxo-1,6-diazabicyclo[3.2.1]octan-6-yl)oxy)sulfonyl)oxy)-2,2-dimethylpropyl) ethanethioate]	–	greater than 10%	–
CCOC(=O)C1(COS(=O)(=O)ON2C(=O)N3C[C@H]2CC[C@H]3C(N)=O)CCCCC1 [avibactam derivative (17), ethyl 1-((((((1R,2S,5R)-2-carbamoyl-7-oxo-1,6-diazabicyclo[3.2.1]octan-6-yl)oxy)sulfonyl)oxy)methyl)cyclohexanecarboxylate]	greater than 10%	–	–
Cc1oc(=O)oc1COC(=O)C(C)(C)COS(=O)(=O)ON1C(=O)N2C[C@H]1CC[C@H]2C(N)=O [avibactam derivative (59), (5-methyl-2-oxo-1,3-dioxol-4-yl)methyl 3-(((((1R,2S,5R)-2-carbamoyl-7-oxo-1,6-diazabicyclo[3.2.1]octan-6-yl)oxy)sulfonyl)oxy)-2,2-dimethylpropanoate]	–	greater than 10%	–
CCCCCCCOC(=O)CCC(C)(C)COS(=O)(=O)ON1C(=O)N2C[C@H]1CC[C@H]2C(N)=O [avibactam derivative (37), heptyl 5-(((((1R,2S,5R)-2-carbamoyl-7-oxo-1,6-diazabicyclo[3.2.1]octan-6-yl)oxy)sulfonyl)oxy)-4,4-dimethylpentanoate]	–	greater than 10%	–
CC(C)(C)OC(=O)C(C)(C)COS(=O)(=O)ON1C(=O)N2C[C@H]1CC[C@H]2C(N)=O [avibactam derivative (14), tert-butyl 3-(((((1R,2S,5R)-2-carbamoyl-7-oxo-1,6-diazabicyclo[3.2.1]octan-6-yl)oxy)sulfonyl)oxy)-2,2-dimethylpropanoate]	greater than 10%	–	–
CC(C)OC(=O)C(C)(C)COS(=O)(=O)ON1C(=O)N2C[C@H]1CC[C@H]2C(N)=O [avibactam derivative (11), isopropyl 3-(((((1R,2S,5R)-2-carbamoyl-7-oxo-1,6-diazabicyclo[3.2.1]octan-6-yl)oxy)sulfonyl)oxy)-2,2-dimethylpropanoate]	greater than 10%	–	–
CCOC(=O)C1(COS(=O)(=O)ON2C(=O)N3C[C@H]2CC[C@H]3C(N)=O)CC1 [avibactam derivative (18), ethyl 1-((((((1R,2S,5R)-2-carbamoyl-7-oxo-1,6-diazabicyclo[3.2.1]octan-6-yl)oxy)sulfonyl)oxy)methyl)cyclopropanecarboxylate]	greater than 10%	–	–
CCOC(=O)C1(COS(=O)(=O)ON2C(=O)N3C[C@H]2CC[C@H]3C(N)=O)CCC1 [avibactam derivative (19), ethyl 1-((((((1R,2S,5R)-2-carbamoyl-7-oxo-1,6-diazabicyclo[3.2.1]octan-6-yl)oxy)sulfonyl)oxy)methyl)cyclobutanecarboxylate]	greater than 10%	–	–
CCCCCCOC(=O)C(C)(C)COS(=O)(=O)ON1C(=O)N2C[C@H]1CC[C@H]2C(N)=O [avibactam derivative (12), hexyl 3-(((((1R,2S,5R)-2-carbamoyl-7-oxo-1,6-diazabicyclo[3.2.1]octan-6-yl)oxy)sulfonyl)oxy)-2,2-dimethylpropanoate]	greater than 10%	–	–
